# Data reported in patent publication US10105411B2, “Compositions and methods for modulating AT2R activity” (Novopyxis, Inc., priority 2014, dated 2018).
# At least one compound was matched to its structure with a doubt left.
# Test system: MCL-1
# Assay: MCL-1 expression in SH-SY5Y cells (immunofluorescence staining)
# Assay type: cell-based
# Settings: Rapamycin alone
# Source text: The SH-SY5Y cell line is a neuronal cell line with both dopaminergic and adrenergic receptors.
structure (smiles),measurement,value
"CO[C@H]1C[C@@H]2CC[C@@H](C)[C@@](O)(O2)C(=O)C(=O)N2CCCC[C@H]2C(=O)O[C@H]([C@H](C)C[C@@H]2CC[C@@H](O)[C@H](OC)C2)CC(=O)[C@H](C)/C=C(\C)[C@@H](O)[C@@H](OC)C(=O)[C@H](C)C[C@H](C)/C=C/C=C/C=C/1C [Rapamycin, reference compound]",MCL-1 expression (in words),MCL-1 expression was reduced
